Measurements published in publication PMC5175178, “Development of an in-vivo active reversible butyrylcholinesterase inhibitor” (Scientific Reports, 2016).
Structures can show the parent of a compound that is named as a salt.

System: scopolamine-induced memory impairment in mice
Test: Passive avoidance task, scopolamine-induced memory impairment
Type: in vivo, Albino Swiss (CD–1 Krf) mice
Conditions: scopolamine-treated control, 1 mg kg^−1 IP (vehicle-treated 178 s)

CN1[C@@H]2C[C@@H](OC(=O)[C@H](CO)c3ccccc3)C[C@H]1[C@@H]1O[C@@H]12 [scopolamine, (−)-Scopolamine hydrobromide]
step-through latency, retention trial: 23 s
